The results in this text go back to paper PMC8160739, “Mycobacterium tuberculosis Binds Human Serum Amyloid A, and the Interaction Modulates the Colonization of Human Macrophages and the Transcriptional Response of the Pathogen” (Cells, 2021).

The chains behind the UniProt entries cited, without tags or fusion partners.
UniProt P9WPU7: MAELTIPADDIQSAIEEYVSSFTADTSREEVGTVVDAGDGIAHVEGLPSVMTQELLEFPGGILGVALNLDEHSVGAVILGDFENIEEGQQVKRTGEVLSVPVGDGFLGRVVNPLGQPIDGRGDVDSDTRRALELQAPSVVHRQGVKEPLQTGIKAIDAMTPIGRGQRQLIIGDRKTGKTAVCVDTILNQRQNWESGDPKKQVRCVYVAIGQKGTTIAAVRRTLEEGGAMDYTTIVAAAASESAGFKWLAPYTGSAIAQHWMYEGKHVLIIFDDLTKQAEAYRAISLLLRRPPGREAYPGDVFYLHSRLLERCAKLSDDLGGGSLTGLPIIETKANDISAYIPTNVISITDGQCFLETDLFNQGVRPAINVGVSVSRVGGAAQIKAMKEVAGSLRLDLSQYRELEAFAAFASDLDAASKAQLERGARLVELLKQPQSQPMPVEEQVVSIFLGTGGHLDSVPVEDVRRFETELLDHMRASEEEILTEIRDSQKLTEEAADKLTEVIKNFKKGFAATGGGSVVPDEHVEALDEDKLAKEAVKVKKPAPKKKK

The target of the test is T1, recombinant human serum amyloid A (SAA1) (human) (UniProt P0DJI8).
T1 sequence: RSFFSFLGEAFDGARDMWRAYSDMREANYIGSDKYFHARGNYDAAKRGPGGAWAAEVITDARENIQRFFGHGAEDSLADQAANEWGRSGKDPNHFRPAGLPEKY
The test is described as follows: affinity purification with mass spectrometry; only the target purified.

These are yes or no findings as the source states them, for the method shown. In cells and extracts the contact can be indirect. Here binding means that the protein was enriched with, or labelled near, the bait; the list need not be complete.

As for “AtpA (Rv1308; probable ATP synthase alpha chain AtpA), native, from Mtb whole-cell extract (from UniProt P9WPU7 1-549)”, the binding result is given as “binds”.
